This passage reports binding results from PMC11994786.

Sequences of proteins named here, by UniProt entry; tags and fusion partners are left off.
UniProt P69566: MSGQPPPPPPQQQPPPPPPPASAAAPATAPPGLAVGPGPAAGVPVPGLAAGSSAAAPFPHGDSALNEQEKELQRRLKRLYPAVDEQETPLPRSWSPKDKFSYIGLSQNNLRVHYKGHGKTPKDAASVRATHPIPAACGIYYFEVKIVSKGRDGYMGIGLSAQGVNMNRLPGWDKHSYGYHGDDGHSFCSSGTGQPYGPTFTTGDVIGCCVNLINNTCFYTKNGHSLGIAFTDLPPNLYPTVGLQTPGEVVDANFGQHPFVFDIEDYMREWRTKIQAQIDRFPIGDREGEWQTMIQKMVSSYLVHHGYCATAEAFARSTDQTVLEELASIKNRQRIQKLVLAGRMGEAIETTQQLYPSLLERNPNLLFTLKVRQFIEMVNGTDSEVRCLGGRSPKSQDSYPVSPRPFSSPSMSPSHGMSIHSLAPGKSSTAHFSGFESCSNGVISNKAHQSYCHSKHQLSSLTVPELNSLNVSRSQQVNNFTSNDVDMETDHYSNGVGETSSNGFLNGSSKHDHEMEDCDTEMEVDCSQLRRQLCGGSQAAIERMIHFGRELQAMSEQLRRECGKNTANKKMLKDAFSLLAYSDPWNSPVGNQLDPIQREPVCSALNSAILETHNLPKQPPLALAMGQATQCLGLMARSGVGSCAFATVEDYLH

The target in the assay is RanBP9-3xHA (Ran Binding Protein 9 fused to three copies of the HA tag) (mouse) (UniProt P69566). As to the kind of experiment: affinity purification with mass spectrometry; anti-HA magnetic beads on 1 mg pre-cleared whole lung lysate of LysMBP9X mice, overnight at 4 °C, on-bead trypsin digestion, LC-MS/MS; hits significant (p ≤ 0.05) against HA-IP from WT mice and Ig-IPs.

No constants are given. Whether binding was seen depends on the method and setting. Binding seen in cells or lysates may run through a third protein. A yes stands for co-enrichment or nearness to the bait. Other partners may have been found.

B1: Eloa (Elongin a) (protein, UniProt Q8CB77 1-773)
chain: MAAESALQVVEKLQARLAANPDPKKLLKYLKKLSILPITVDILVETGVGKTVNSFRKHEQVGNFARDLVAQWKKLVPVERNSEAEDQDFEKNNSRKRPRDALQREEELEGNYQESWKPSGSRSYSPEHRQKKHKKLSEPERPHKVAHSHEKRDERKRCHKVSPPYSSDPESSDYGHVQSPPPSSPHQMYTDLSRSPEEDQEPIISHQKPGKVHSNTFQDRLGVSHLGEQGKGAVSHHKQHRSSHKEKHPADAREDEKISAVSREKSHKASSKEESRRLLSGDSAKEKLPSSVVKKDKDREGSSLKKKFSPALDVASDNHFKKPKHKDSEKAKSDKNKQSVDGVDSGRGTGDPLPKAKEKVPNHLKAQEGKVRTNADGKSAGPLHPKAEETDVDDEFERPTMSFESYLSYDQPRKKKKKVVKTSSTALGEKGLKKKDSKSTSKNLNSAQKLPKVNENKSEKLQPAGAEPTRPRKVPTDVLPALPDIPLPAIHANYRPLPSLELIPSFQPKRKAFSSPQEEEEAGFTGRRMNSKMQVYSGSKCAYLPKMMTLHQQCIRVLKNNIDSIFEVGGVPYSVLEPVLERCTPDQLYRIEECNHVLIEETDQLWKVHCHRDFKEERPEEYESWREMYLRLQDAREQRLRLLTNNIRSAHANKPKGRQAKMAFVNSVAKPPRDVRRRQEKFGTGGAAVPEKVRIKPAPYTTGSSHVPASNSSSNFHSSPEELAYDGPSTSSAHLAPVASSSVSYDPRKPAVKKIAPMMAKTIKAFKNRFSRR
For the molecule B1, the binding result is given as “binds”.

B2: Man2c1 (Mannosidase Alpha Class 2C member 1) (protein, UniProt Q91W89 1-1039)
chain: MAAAPFLKHWRTTFERVEKFVSPIYFTDCNLRGRLFGDSCSVTLSSFLTPERLPYEKAVQQNFSPAQVGDSFGPTWWTCWFRVELVIPEVWVGQEVHLCWESDGESLVWRDGEPVQGLTKEGEKTSYVLSERLRASDPRSLTLYVEVACNGLLGAGKGSMIAAPDPEKMFQLSQAKLAVFHRDVHSLLVDLELLLGVAKGLGEDSQRSFQALHTANQMVNICDPAQPETYPAAKALASKFFGQHGGESQHTIHAMGHCHIDTAWLWPFKETVRKCARSWSTAVTLMEQNTDFIFACSQAQQLEWVKSQYPGLHARLQEFACRGQFVPVGGTWVEMDGNLPSGEAMVRQFLQGQNFFLQEFGKMCSEFWLPDTFGYSAQLPQIMQGCGIKRFLTQKLSWNLVNSFPHHTFFWEGLDGSRVLVHFPPGDSYGMQGSVEEVLKTVTNNRDKGRTNHSGFLFGFGDGGGGPTQTMLDRLKRLSNTDGLPRVQLSSPGQLFTALERDSGQLCTWVGELFLELHNGTYTTHAQLKKGNRECEQILHDVEVLSSLALARSAQFLYPAAQLQHLWRLLLLNQFHDVVTGSCIQLVAEDAMNYYEDIRSHGNPLLSAAAAALCAGEPGPKGLLIINTLPWKRTEVLALPKPCGAHSLALVTVPSIGYAPAPTPTSLQPLLPQQPVFVMQETDGSVTLDNGIIRVRLDPTGCLTSLVLVASGREAIAEGALGNQFVLFDDVPLYWDAWDVMDYHLETRKPVLGQAGTLAVGTEGGLRGSAWFLLQISPNSRLSQEVVLDVGCPYVRFHTEVHWHEAHKFLKVEFPARIRSPQATYEIQFGHLQRPTHNNTSWDWARYEVWAHRWIDLSECDFGLALLNNCKYGASVRGNVLSLSLLRAPKAPDATADMGRHEFTYALMPHKGSFQEAGVIHAAYNLNFPLLALPAPGPAPDTTWSAFSVSSPAVVLETIKQAERCHQHRTLVLRLYEAHGSHVDCWLHTSLPVQEATLCDLLEQRDPTGHLSLQDNRLKLTFSPFQVRSLLLVLQSPPN
On to B2, for which the binding result was “binds”.

B3: Cwc22 (CWC22 Spliceosome Associated Protein Homolog) (protein, UniProt Q8C5N3 1-908)
chain: MKSSVAHMKSSGHNRRETHSSYRRSSSPEDRYTEQERSPRDRGYSDYSRSDYERSRRGYSYDDSMESRSRDREKRRERERDADHRKRSRKSPSPDRSPARGGGQSSPQEEPTWKKKKDELDPLLTRTGGAYIPPAKLRMMQEQITDKSSLAYQRMSWEALKKSINGLINKVNISNISIIIQELLQENIVRGRGLLSRSVLQAQSASPIFTHVYAALVAIINSKFPQIGELILKRLILNFRKGYRRNDKQLCLTASKFVAHLINQNVAHEVLCLEMLTLLLERPTDDSVEVAIGFLKECGLKLTQVSPRGINAIFERLRNILHESEIDKRVQYMIEVMFAVRKDGFKDHPVILEGLDLVEEDDQFTHMLPLEDDYNPEDVLNVFKMDPNFMENEEKYKAIKKEILDEGDSDSNTDQGAGSSEDEEEEDEEEEGEDEEGGQKVTIHDKTEINLVSFRRTIYLAIQSSLDFEECAHKLLKMEFAESQTKELCNMILDCCAQQRTYEKFFGLLAGRFCMLKKEYMESFESIFKEQYDTIHRLETNKLRNVAKMFAHLLYTDSLPWSVLECIKLSEETTTSSSRIFVKIFFQELCEYMGLPKLNARLKDETLQPFFEGLLPRDNPRNTRFAINFFTSIGLGGLTDELREHLKNTPKVIVAQKPEAEQKKPALTSSSSESSSASDSSDSESDSSESSSESSSDASDSSSSSSTQSSTSGITAHSAKGTRKKRQGKARGEEVDKLARGHQALERRREGGREDQRHQEGRTERARSERRRAQNSRDADWRDPLAKHIDDRSHENSHSRVGNGREQGSHREPEDRHGEPKKRRERRDSFSENEKQRSRNQDSDNVRRKDRSKSRERSRRHSGHKGDDARCQNSAERRWEKPGRRPEQSRESKRSQDRRREKSPTTQK
Regarding B3, the binding entry is “binds”.

B4: Plrg1 (Pleiotropic regulator 1) (protein, UniProt Q922V4 1-513)
chain: MVEEVQKHSVHTLVFRSLKRTHDMFVADNGKPVPLDEESHKRKMAIKLRNEYGPVLHMPTSKENLKEKGPQNATDSYPHKQYPANQGQDVEYLVTGTHPYPAGPGVALTADTKIQRMPSESAAQSLAVALPSQTRVDANRTGPAGSEYRHPGASDRSQPTAMNSIMETGNTKNSALMAKKAPTMPKPQWHPPWKLYRVISGHLGWVRCIAVEPGNQWFVTGSADRTIKIWDLASGKLKLSLTGHISTVRGVIVSTRSPYLFSCGEDKQVKCWDLEYNKVIRHYHGHLSAVYGLDLHPTLDVLVTCSRDSTARIWDVRTKASVHTLSGHTNAVATVRCQAAEPQIITGSHDTTIRLWDLVAGKTRVTLTNHKKSVRAVVLHPLLYTFASGSPDNIKQWKFPDGGFIQNLSGHNAIINTLAVNADGVLVSGADNGTMHLWDWRTGYNFQRVHAAVQPGSLDSESGIFACAFDRSESRLLTAEADKTIKVYREDETATEETHPVSWKPEIIKRKRF
With B4, the binding result is “binds”.

B5: Mcm3 (Minichromosome maintenance complex component 3) (protein, UniProt P25206 1-812)
chain: MAGTVVLDDVELREAQRDYLDFLDDEEDQGIYQNKVRELISDNQYRLIVSVNDLRRKNEKRANRLLNNAFEELVAFQRALKDFVASIDATYAKQYEEFYIGLEGSFGSKHVSPRTLTSCFLSCVVCVEGIVTKCSLVRPKVVRSVHYCPATKKTIERRYSDLTTLVAFPSSSVYPTKDEENNPLETEYGLSVYKDHQTITIQEMPEKAPAGQLPRSVDVILDDDLVDKVKPGDRIQVVGTYRCLPGKKGCYTSGTFRTVLIACNVKQMSKDIQPAFSADDIAKIKKFSKTRSKDVFEQLARSLAPSIHGHDYVKKAILCLLLGGVERELENGSHIRGDINILLIGDPSVAKSQLLRYVLCTAPRAIPTTGRGSSGVGLTAAVTTDQETGERRLEAGAMVLADRGVVCIDEFDKMSDMDRTAIHEVMEQGRVTIAKAGIHARLNARCSVLAAANPVYGRYDQYKTPMENIGLQDSLLSRFDLLFIMLDQMDPEQDREISDHVLRMHQYRAPGEQDGDALPLGSSVDILATDDPDFTQDDQQDTRIYEKHDSLLHGTKKKKEKMVSAAFMKKYIHVAKIIKPTLTQESAAYIAEEYSRLRSQDSMSSDTARTSPVTARTLETLIRLATAHAKARMSKTVDLQDAEEAVELVQYAYFKKVLEKEKKRKKASEDESDLEDEEEKSQEDTEQKRKRRKTHAKDGESYDPYDFSEAETQMPQVHTPKTDDSQEKTDDSQETQDSQKVELSEPRLKAFKAALLEVFQEAHEQSVGMLHLTESINRNREEPFSSEEIQACLSRMQDDNQVMVSEGIVFLI
As for B5, the binding entry is reported as “binds”.

B6: Entpd1 (Ectonucleoside Triphosphate Diphosphohydrolase 1) (protein, UniProt P55772 1-510)
chain: MEDIKDSKVKRFCSKNILIILGFTSILAVIALIAVGLTQNKPLPENVKYGIVLDAGSSHTNLYIYKWPAEKENDTGVVQQLEECQVKGPGISKYAQKTDEIGAYLAECMELSTELIPTSKHHQTPVYLGATAGMRLLRMESEQSADEVLAAVSTSLKSYPFDFQGAKIITGQEEGAYGWITINYLLGRFTQEQSWLSLISDSQKQETFGALDLGGASTQITFVPQNSTIESPENSLQFRLYGEDYTVYTHSFLCYGKDQALWQKLAKDIQVSSGGVLKDPCFNPGYEKVVNVSELYGTPCTKRFEKKLPFDQFRIQGTGDYEQCHQSILELFNNSHCPYSQCAFNGVFLPPLHGSFGAFSAFYFVMDFFKKVAKNSVISQEKMTEITKNFCSKSWEETKTSYPSVKEKYLSEYCFSGAYILSLLQGYNFTDSSWEQIHFMGKIKDSNAGWTLGYMLNLTNMIPAEQPLSPPLPHSTYIGLMVLFSLLLVAVAITGLFIYSKPSYFWKEAV
On to B6, for which the binding result was “binds”.

B7: Snrp40 (protein, UniProt Q6PE01 1-358)
chain: MIEQQKRKGPELPLVPVKRPRHELLLGAAGAGPGAGPQQATPGALLQAGPPRCSSLQAPIMLLSGHEGEVYCCKFHPNGSTLASAGFDRLILLWNVYGDCDNYATLKGHSGAVMELHYNTDGSMLFSASTDKTVAVWDSETGERVKRLKGHTSFVNSCYPARRGPQLVCTGSDDGTVKLWDIRKKAAVQTFQNTYQVLAVTFNDTSDQIISGGIDNDIKVWDLRQNKLTYTMRGHADSVTGLSLSSEGSYLLSNAMDNTVRVWDVRPFAPKERCVKIFQGNVHNFEKNLLRCSWSPDGSKIAAGSADRFVYVWDTTSRRVLYKLPGHAGSINEVAFHPDEPIILSASSDKRLYMGEIQ
As to B7, the binding entry is “binds”.

B8: Tho6 (member of the THO complex) (protein, UniProt Q5U4D9 1-341)
chain: MEHAAPLAVPLGQAEVFQALQRLHMTIFSQSVSPCGKFLAAGNNYGQIAIFSLSAALSSEAKEESKKPVVVFHAHDGPVYSMVSTDRHLLSAGDGEVKGWLWAEILKKGCKELWRRQPPYRTSLEVPEINALLLVPKENSLILAGGDCQLHSMDLETGAFTRALRGHTDYIHCLALRERSPEVLSGGEDGAVRLWDLRIAKEVQTIEVYKHEECSRPHNGRWIGCLATDSDWMVCGGGPALTLWHLRSSTPTTVFPIRAPQKHVTFYQDLILSAGQGCCVNHWQLSGELKAQVPGSSPGLLSLSLNQQPAAPECKVLTASGNSCRVDVFTNLGYRAFSLSF
Regarding B8, the binding result is reported as “binds”.
